Test [1] concerns the target TbTryS (Trypanosoma brucei trypanothione synthetase) (Trypanosoma brucei brucei, UniProt Q8IEX1). Nature of the test: biochemical. The conditions noted are these: read-out: reduction of TbTryS activity.
Test [2] deals with TbTryS. Conditions: subsaturating 25 μM SP; ref [18]; cited from earlier work.
The target in test [3] is LiTryS (Leishmania infantum trypanothione synthetase) (Leishmania infantum, UniProt A4I2Z3). Kind of test: biochemical. The conditions noted are these: read-out: reduction of LiTryS activity.

The chains behind the UniProt entries cited, without tags or fusion partners. Residues count along the entry.
UniProt Q8IEX1, 1-627: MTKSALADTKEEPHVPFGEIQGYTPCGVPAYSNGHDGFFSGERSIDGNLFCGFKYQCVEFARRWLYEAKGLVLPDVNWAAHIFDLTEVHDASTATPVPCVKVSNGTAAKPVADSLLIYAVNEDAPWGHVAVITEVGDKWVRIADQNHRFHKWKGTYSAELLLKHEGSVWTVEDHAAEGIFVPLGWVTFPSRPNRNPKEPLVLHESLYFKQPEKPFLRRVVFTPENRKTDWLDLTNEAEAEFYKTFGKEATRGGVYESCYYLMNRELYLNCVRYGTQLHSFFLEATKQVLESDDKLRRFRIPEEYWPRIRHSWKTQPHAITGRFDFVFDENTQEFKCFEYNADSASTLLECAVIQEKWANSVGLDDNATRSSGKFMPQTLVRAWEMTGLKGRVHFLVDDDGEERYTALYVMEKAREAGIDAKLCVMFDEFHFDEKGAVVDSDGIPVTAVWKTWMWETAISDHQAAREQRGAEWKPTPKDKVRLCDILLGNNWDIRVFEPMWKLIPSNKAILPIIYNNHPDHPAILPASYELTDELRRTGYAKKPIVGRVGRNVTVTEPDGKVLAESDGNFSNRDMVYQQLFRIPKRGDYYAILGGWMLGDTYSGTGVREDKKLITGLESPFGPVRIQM
UniProt A4I2Z3, 1-652: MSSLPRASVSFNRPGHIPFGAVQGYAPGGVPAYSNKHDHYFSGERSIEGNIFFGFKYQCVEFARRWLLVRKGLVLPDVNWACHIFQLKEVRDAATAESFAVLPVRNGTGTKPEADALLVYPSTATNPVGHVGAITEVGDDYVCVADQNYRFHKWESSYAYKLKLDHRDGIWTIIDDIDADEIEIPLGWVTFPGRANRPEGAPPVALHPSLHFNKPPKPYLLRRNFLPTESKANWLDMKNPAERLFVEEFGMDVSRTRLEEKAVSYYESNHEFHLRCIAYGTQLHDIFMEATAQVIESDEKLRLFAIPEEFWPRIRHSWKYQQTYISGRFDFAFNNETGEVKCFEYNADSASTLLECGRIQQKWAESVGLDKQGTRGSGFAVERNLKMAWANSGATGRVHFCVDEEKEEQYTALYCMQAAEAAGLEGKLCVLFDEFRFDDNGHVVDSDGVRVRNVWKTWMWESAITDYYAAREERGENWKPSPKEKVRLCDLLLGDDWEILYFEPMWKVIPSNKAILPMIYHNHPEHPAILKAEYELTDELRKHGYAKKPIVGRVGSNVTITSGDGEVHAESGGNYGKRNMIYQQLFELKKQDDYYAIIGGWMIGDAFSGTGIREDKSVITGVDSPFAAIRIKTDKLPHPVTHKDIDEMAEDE

Data on one molecule can be found in article PMC4829233, “Identification of Novel Chemical Scaffolds Inhibiting Trypanothione Synthetase from Pathogenic Trypanosomatids” (PLoS Neglected Tropical Diseases, 2016).

The IC50 is the concentration that inhibits the measured activity by half. Take `CN1CCN(CCCN2c3ccccc3Sc3ccc(Cl)cc32)CC1` [prochlorperazine, reference compound]: the inhibition at 300 µM in test [1] amounted to 58%; in test [3], 0%. For the same molecule, in test [2], the IC50 is 19 µM.
